Data taken from PMC11885570.
Where two headings read alike, the source gives them in different places. No constants are given. Whether binding was seen depends on the method and setting. In cells and extracts the contact can be indirect. A yes stands for co-enrichment or nearness to the bait. Other partners may have been found.

Amino acid sequences for entries named in this document (tags omitted).
UniProt O60488: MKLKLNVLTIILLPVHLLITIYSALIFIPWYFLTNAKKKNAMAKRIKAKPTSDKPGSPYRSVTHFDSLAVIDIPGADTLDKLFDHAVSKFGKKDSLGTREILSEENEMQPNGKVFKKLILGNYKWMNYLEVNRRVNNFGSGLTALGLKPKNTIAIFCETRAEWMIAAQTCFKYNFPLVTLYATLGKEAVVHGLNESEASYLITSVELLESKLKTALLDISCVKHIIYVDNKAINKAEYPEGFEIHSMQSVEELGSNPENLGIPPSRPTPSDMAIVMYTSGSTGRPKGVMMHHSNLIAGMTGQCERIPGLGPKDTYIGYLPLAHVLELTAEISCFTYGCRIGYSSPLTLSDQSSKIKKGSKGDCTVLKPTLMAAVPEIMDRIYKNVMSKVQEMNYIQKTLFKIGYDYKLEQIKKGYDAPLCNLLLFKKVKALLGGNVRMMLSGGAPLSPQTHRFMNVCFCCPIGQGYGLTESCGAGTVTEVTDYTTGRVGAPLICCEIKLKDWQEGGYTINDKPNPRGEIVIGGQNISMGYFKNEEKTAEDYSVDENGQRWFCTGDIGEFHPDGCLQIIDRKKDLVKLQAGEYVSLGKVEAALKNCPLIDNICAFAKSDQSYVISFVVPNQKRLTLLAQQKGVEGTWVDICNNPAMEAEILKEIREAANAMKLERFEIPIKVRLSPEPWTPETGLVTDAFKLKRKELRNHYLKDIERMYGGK
UniProt O14929: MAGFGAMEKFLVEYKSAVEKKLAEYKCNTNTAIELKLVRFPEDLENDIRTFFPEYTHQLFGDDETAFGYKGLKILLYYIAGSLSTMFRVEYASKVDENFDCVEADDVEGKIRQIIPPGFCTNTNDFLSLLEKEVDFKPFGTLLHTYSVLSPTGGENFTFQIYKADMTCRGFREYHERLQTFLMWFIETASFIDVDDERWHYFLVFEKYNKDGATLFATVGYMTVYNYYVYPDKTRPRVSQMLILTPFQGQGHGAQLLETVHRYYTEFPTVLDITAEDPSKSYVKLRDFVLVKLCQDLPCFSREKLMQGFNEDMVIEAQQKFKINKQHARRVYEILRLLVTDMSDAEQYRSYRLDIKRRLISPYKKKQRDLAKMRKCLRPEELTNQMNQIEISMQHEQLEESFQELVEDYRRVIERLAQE

B1: ACAT1, endogenous in SUNE1 cells (enzyme, UniProt P24752 34-427)
chain: VSKPTLKEVVIVSATRTPIGSFLGSLSLLPATKLGSIAIQGAIEKAGIPKEEVKEAYMGNVLQGGEGQAPTRQAVLGAGLPISTPCTTINKVCASGMKAIMMASQSLMCGHQDVMVAGGMESMSNVPYVMNRGSTPYGGVKLEDLIVKDGLTDVYNKIHMGSCAENTAKKLNIARNEQDAYAINSYTRSKAAWEAGKFGNEVIPVTVTVKGQPDVVVKEDEEYKRVDFSKVPKLKTVFQKENGTVTAANASTLNDGAAALVLMTADAAKRLNVTPLARIVAFADAAVEPIDFPIAPVYAASMVLKDVGLKKEDIAMWEVNEAFSLVVLANIKMLEIDPQKVNINGGAVSLGHPIGMSGARIVGHLTHALKQGEYGLASICNGGGGASAMLIQKL
B2: F-box protein 10 (FBXO10), endogenous in NPC cells (protein, UniProt Q9UK96 1-956)
chain: MEAGGLPLELWRMILAYLHLPDLGRCSLVCRAWYELILSLDSTRWRQLCLGCTECRHPNWPNQPDVEPESWREAFKQHYLASKTWTKNALDLESSICFSLFRRRRERRTLSVGPGREFDSLGSALAMASLYDRIVLFPGVYEEQGEIILKVPVEIVGQGKLGEVALLASIDQHCSTTRLCNLVFTPAWFSPIMYKTTSGHVQFDNCNFENGHIQVHGPGTCQVKFCTFKNTHIFLHNVPLCVLENCEFVGSENNSVTVEGHPSADKNWAYKYLLGLIKSSPTFLPTEDSDFLMSLDLESRDQAWSPKTCDIVIEGSQSPTSPASSSPKPGSKAGSQEAEVGSDGERVAQTPDSSDGGLSPSGEDEDEDQLMYRLSYQVQGPRPVLGGSFLGPPLPGASIQLPSCLVLNSLQQELQKDKEAMALANSVQGCLIRKCLFRDGKGGVFVCSHGRAKMEGNIFRNLTYAVRCIHNSKIIMLRNDIYRCRASGIFLRLEGGGLIAGNNIYHNAEAGVDIRKKSNPLILCNQIHHGLRSGIVVLGNGKGIIRNNQIFSNKEAGIYILYHGNPVVSGNHIFKGRAAGIAVNENGKGLITENVIRENQWGGVDIRRGGIPVLRSNLICFGYSDGVVVGDEGKGLIEGNTIYANKGCGVWMMSSSLPHVTSNHVSYNGLYGVAVFSQKDGSSELPRGHRAQENFSEDGDAILWETELEKEDDPLRRPITIALVESNSINHNGASGLYVQSSEALHVITNVIHANGDRGITVAQSSQPTRVANNSISCNRQSGVKVEAQCKVELRGNGIYDNRGHGIITKGDSTIVIENDIIGNRGSGLQLLPRSDTKVIKNRIHSFRAYGIAVRGRAKALVQENIIFQGKTSKTIFQQISNNRECIMQNNKFLVFKKKSDTWRLVNPPARPHLENSLRRPSAAHNGQKVTAMATRITARVEGGYHSNRSVFCTIL

Columns and labels:
[1] = target: acyl-CoA synthase long-chain family member 4 (ACSL4), endogenous in NPC cells (human (endogenous in NPC cells)) (UniProt O60488); test: affinity purification with mass spectrometry; SUNE1 cell lysate with ACSL4 antibody and magnetic beads overnight at 4 °C, three washes, mass spectrometry of the bound proteins
[2] = target: acyl-CoA synthase long-chain family member 4 (ACSL4), endogenous in NPC cells (human (endogenous in NPC cells)) (UniProt O60488); test: as above; remark: listed apart in the source

Molecule | binding [1] | binding [2]
histone acetyltransferase 1 (HAT1), endogenous in NPC cells (from UniProt O14929 1-419) (enzyme) | binds | –
B1 | – | binds
B2 | – | binds
